Measured values: patent US20160304578A1 (XYPHOS BIOSCIENCES, published 2016)
These are yes or no findings as the source states them, for the method shown. Some results given as binding are weak or reduced against the parent protein; the word gives no strength. Tags and fused reporters may be left off the sequences shown.

Legend:
mouse NKG2D-Fc (mouse) [1] = molecular target: T1, mouse NKG2D-Fc (mouse) (UniProt O54709); assay: competition ELISA: protein titrated against mouse NKG2D-Fc binding to plate-coated WT sMICA, detection with anti-Fc-HRP
T1 sequence (looked up): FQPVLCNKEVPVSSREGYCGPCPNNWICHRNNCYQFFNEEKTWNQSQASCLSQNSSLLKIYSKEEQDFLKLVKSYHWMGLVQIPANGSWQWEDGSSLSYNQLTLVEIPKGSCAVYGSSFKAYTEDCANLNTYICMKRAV

mouse NKG2D-Fc (mouse) [2] = molecular target: T1, mouse NKG2D-Fc (mouse); assay: competition ELISA: mouse NKG2D-Fc binding to plate-coated MICA

B1: WT α1-α2 soluble MICA protein (ligand, UniProt Q29983 24-299, looked up)
chain: EPHSLRYNLTVLSWDGSVQSGFLTEVHLDGQPFLRCDRQKCRAKPQGQWAEDVLGNKTWDRETRDLTGNGKDLRMTLAHIKDQKEGLHSLQEIRVCEIHEDNSTRSSQHFYYDGELFLSQNLETKEWTMPQSSRAQTLAMNVRNFLKEDAMKTKTHYHAMHADCLQELRRYLKSGVVLRRTVPPMVNVTRSEASEGNITVTCRASGFYPWNITLSWRQDGVSLSHDTQQWGDVLPDGNGTYQTWVATRICQGEEQRFTCYMEHSGNHSTHPVPSGK
notes: also called WT MICA; WT NKG2DL
binding (mouse NKG2D-Fc (mouse) [1]): binds | binding (mouse NKG2D-Fc (mouse) [2]): binds
